{
  "source": "PubChem BioAssay AID2630",
  "about": "(Broad Institute, 2010)",
  "test": "T. cruzi infection blockers in NIH3T3 cells – beta-gal luminescence, NIH3T3 host cells, confirmation (AID 2630)",
  "settings": "T. cruzi beta-gal in NIH3T3, GalScreen luminescence, 90 h; at 19.5 µM (top of the series)",
  "note": "The other results are listed elsewhere or left out. Entries without a call are filed as inconclusive in the source.",
  "data": [
    {"smiles": "COCc1cc(CN2CCCC(CNC(=O)c3ccc(F)cc3)C2)ccc1OC", "note": "(stereo unspecified)", "values": [
      {"measurement": "activity change, negative = inhibition", "value": -48.1, "unit": "%"}
    ]}
  ]
}
